The record followed here is publication PMC10163288.

The labels stand for the following.
B1: il2ra_site1_2b5i_sap_17_mot_HHH_b2_00513_af2_000000146_0001_23_38_H_._HHH_b2_08134_0001_0000200024_0000001_0_0001_af2pred_0001_af2pred (protein)
chain: SSSSTEEQEEILRLLEEAQEADENGDPEEAERLLERALELAEEAGSPSARKFVEAALRQTSSSSS
B2: il2ra_site2_3nfp_normal_mot_HHH_b2_04230_000000235_0001_39_52_H_._HHH_b1_08287_0001_0000400025_0000001_0 (protein)
chain: SSSSSEFEKRLEELLEELEKLVREGNEEEFRRVAAEIAHLAFKGNDHEAYFRLAELAYAFYSSSS
B3: il2ra_site1_1z92_sap_27_mot_HHH_b2_05274_af2_000000237_0001_23_40_H_._HHH_b1_06755_0001_0000200009_0000001_1_0001_af2pred_0001_af2pred (protein)
chain: DIEEVLEEAAELVEEGNPEEAKRLLEELVRKTGDPALKFLLEAVEAKLKRGDLEAVRKLLERAAR
B4: il2ra_site2_2erj_normal_mot_HHH_b1_06542_af2_000000257_0001_1_17_H_._HHH_b1_04567_0001_0000500031_0000001_0 (protein)
chain: SSSSNEEEQVKAIEEDAERLEEEGDPELARAYLELAERFAERSRDEEVLRLLEKLLRELRNSSSS
B5: il2ra_site1_2b5i_normal_mot_2cbe48e66a1f39b3fed734b245ab0a04_0001_000000015_0001_17_31_H_._HHH_b2_07409_0001_0000200008_0000001_0_af2pred_dldesign_0_af2pred (protein)
chain: SSSSAATRARVRALMEEARKLAKEGKEEEVSKLLFEALYLARAARDPELAAEVEALYRELSSSSS
B6: il2ra_site2_3nfp_normal_mot_ems_p1-15H-GBL-16H-GBL-14H_0089_0001_0001_0001_af2_000000072_0001_19_33_H_._738ccc93aada9afe30a0d8950425dc90_0001_1_0001_0000100009_ … (protein)
chain: DVQAELAELAYERRDFRVFAALADILALKEQGVPPEEIEQIVEEIIKKAGLPPEIEELLRKAVEE
B7: il2ra_site2_3nfp_normal_mot_HHH_b1_00239_000000199_0001_23_39_H_._HHH_b1_01329_af2_0001_0000600038_0000001_0 (protein)
chain: SSSSDDEKHEEMVELAIRLAEEAGDEEVLEELEELLKRAREEGDFRLLLEAYALLARRYKNSSSS
B8: il2ra_site1_3nfp_normal_mot_HHH_b2_02053_000000240_0001_1_20_H_._66959ead3e6c57cb3ef8243f3eb758e0_0001_1_af2_0001_0000200018_0000001_0_af2pred_0001_af2pred_swap … (protein)
chain: SAAEILLERAVKENSESALRKFIEDLLRTFGNPEEVEKFLEELVKALGLPPEVLERLEKLLEELT
B9: il2ra_site1_2b5i_normal_mot_HHH_b1_01507_000000251_0001_20_36_H_._HHH_b2_06566_af2_0001_0000300022_0000001_0_af2pred_dldesign_0_af2pred (protein)
chain: SSSSSPEDAKRIRELVKKADELFKAGKEEEARKALEEALKLAKENNMTGTAKFLEACLASLSSSS
B10: il2ra_site2_3nfp_normal_mot_HHH_b2_00615_000000276_0001_1_15_H_._HHH_b2_03465_0001_0000600023_0000001_0 (protein)
chain: SSSSDNLEVWELLREALEALREGNPEEAREILEEAEKIAKENNSRVARRAVETVKENIEFGSSSS
B11: il2ra_site1_1z92_sap_25_mot_4a166e40179e6c064b671d174dbdc8c6_0001_000000090_0001_35_49_H_._493e05f641973f3adf044177f88ae147_0001_0001_0000100019_0000001_0_0001 (protein)
chain: TRKELQKMIEELREEGVPPEEIVKILLELVEKDAGDPRLALQFLKRLLKKLGDPELLRVLEELIK
B12: il2ra_site1_2b5i_normal_mot_HHH_b1_02810_af2_000000252_0001_1_19_H_._HHH_b1_06010_af2_0001_0000300034_0000001_0_af2pred_dldesign_0_af2pred (protein)
chain: SSSSSSEEEVYELYKEALRLRKQGKYEEAKKVLEKALELAKELGLETKVKELEELLERLKSSSSS
B13: il2ra_site1_1z92_sap_14_mot_cda1634bf71a07e6bb6bfbc1e51fcdca_0001_af2_000000299_0001_1_14_H_._HHH_b1_03988_0001_0000300022_0000001_0_0001_af2pred_0001_af2pred (protein)
chain: DVEELLKLARELGDEEVVEVAEILAHQLELRPDDTAARFAVEQLLKLLEEDPERAKKMAELSLRS
B14: il2ra_site1_2b5i_sap_11_mot_HHH_b2_01648_000000060_0001_42_56_H_._HHH_b2_08125_0001_0000200014_0000001_0_0001_af2pred_dldesign_0_af2pred (protein)
chain: SSSSDEAWEEIDRLFSEAERLRRAGKREEARELLEEALAVAEANNDAKAVAELRRLLELLSSSSS
B15: il2ra_site2_2erj_sap_22_mot_HHH_b2_07720_000000231_0001_21_37_H_._HHH_b1_02978_0001_0000500004_0000001_0_0001 (protein)
chain: SSSSSSHEEMAELIEELFEEAREAGNEAALRLVLAFLRLSIEDTGDPRLEELLEELERLLSSSSS
B16: il2ra_site1_2b5i_normal_mot_HHH_b1_02271_000000068_0001_1_16_H_._HHH_eva_0455_0001_0000100005_0000001_0_af2pred_dldesign_0_af2pred (protein)
chain: SSSSSSSDRRKILEEADKAFKAGDVEKLEELLKKAKAAGDEKTARAIERAIEVAREESSSSSSSS
B17: il2ra_site2_3nfp_normal_mot_HHH_b2_07840_000000026_0001_18_34_H_._HHH_b1_00954_0001_0000200021_0000001_0 (protein)
chain: SSSSDLEERLRELLEELEELVKEGDEERFREVAREVIQLVYENNDHEAFAKLADLLYLIESSSSS
B18: il2ra_site1_1z92_sap_16_mot_HHH_b1_07660_af2_000000114_0001_40_57_H_._HHH_b1_07492_0001_0000100006_0000001_0_0001_af2pred_0001_af2pred_1 (protein)
chain: NDHTRELIKEAIEKNDEELLKEFLELAERDSGDPRLAKQYLRILIKKLLGDPEKAKEIVRRIEER
B19: il2ra_site2_2erj_sap_24_mot_HHH_b2_02257_000000217_0001_21_37_H_._HHH_b1_05454_0001_0001000012_0000001_0_0001 (protein)
chain: SSSSSEEEVEELIRKAEELLKEGDEAEALHVLAEAALLALELNDPELFRLISELFEEVYRSSSSS

The list shows a part of the results.

This experiment addresses il2ra, P01589. The experiment can be described thus: yeast display titration.
For B1, the “apparent Kd” value was “inactive: no binding seen”.
On to B2, for which the “apparent Kd” value was “inactive: no binding seen”.
Under B3 stands “inactive: no binding seen”.
Under B4 stands “inactive: no binding seen”.
Under B5 stands “inactive: no binding seen”; under B6, “inactive: no binding seen”.
On to B7, for which the “apparent Kd” value is “inactive: no binding seen”.
With B8, the “apparent Kd” value was “inactive: no binding seen”.
In the case of B9, the “apparent Kd” value was “inactive: no binding seen”.
Take B10: the “apparent Kd” value was “inactive: no binding seen”.
Under B11 stands “inactive: no binding seen”.
Under B12 stands “inactive: no binding seen”.
For the molecule B13, the “apparent Kd” value was “inactive: no binding seen”.
Take B14: the “apparent Kd” value was “inactive: no binding seen”.
Regarding B15, the “apparent Kd” value is “inactive: no binding seen”.
For B16, the “apparent Kd” value was “inactive: no binding seen”.
Under B17 stands “inactive: no binding seen”; under B18, “inactive: no binding seen”.
In the case of B19, the “apparent Kd” value was “inactive: no binding seen”.
